Experimental data as given in patent publication US20230157281A1, “COMPOSITIONS AND METHODS FOR REPELLING ANIMALS FROM AN OBJECT” (Texas Tech University System, priority 2020, published 2023).

Legend:
[1] = GC-MS identification and quantification of volatiles in cat urine; conditions: for Peak area ratio of volatile in urine: peak area / internal standard; for Estimated concentration in cat urine, 95% confidence interval: N=7
[2] = GC-MS identification and quantification of volatiles in cat feces; conditions: for Peak area ratio of volatile in feces: peak area / internal standard; for Estimated concentration in cat feces, 95% confidence interval: dry matter
[3] = cited from earlier work

| Compound | Peak area ratio of volatile in feces ([2]; intact female cats (N=8)) | Peak area ratio of volatile in feces ([2]; intact male cats (N=10)) | also measured |
| --- | --- | --- | --- |
| CC/C=C\CC1=C(C)CCC1=O [Cis-Jasmone] |  |  | Peak area ratio of volatile in urine ([1]; intact female cats (N=7)): 0.09; Peak area ratio of volatile in urine ([1]; intact male cats (N=7)): 0.04 |
| CCCCCC(=O)O [Hexonoic acid] | 1.22 | 0.93 |  |
| O=C1CCC=CN1 [2,3-Dethydropiperidin-6-one] |  |  | Peak area ratio of volatile in urine ([1]; intact female cats (N=7)): 0.06; Peak area ratio of volatile in urine ([1]; intact male cats (N=7)): 0.08 |
| Cc1ncsc1CCO [4-Methyl-5-thiazoleethanol] | 0.02 | 0.02 |  |
| O=C(O)C(C(=O)O)c1ccccc1 [Propanedioic acid, phenol] | 0.23 | 0.44 |  |
| CCCC(=O)O [Butanoic acid/butyric acid, Butanoic acid] | 2.78 | 4.85 | higher in the feces of males than females ([2]; abstract of Example 1, P=0.02 (concentration, Table 6)): 98%; higher in male feces than in female feces ([2]; discussion, matches peak area ratio of Table 5): 74.5%; Estimated concentration in cat feces, 95% confidence interval ([2]; female cats, N=8): 5050-18348 μg/g DM; Estimated concentration in cat feces, 95% confidence interval ([2]; male cats, N=10): 16271-30090 μg/g DM |
| Q-Docecalactone | 0.01 | 0.02 |  |
| CCCCCC/C=C/CCCCCCCCO [Hexadecen-1-ol, trans-9-] | 0.16 | 0.12 |  |
| CCC(=O)O [Propanoic acid] | 0.66 | 0.56 |  |
| CCCCCCCC/C=C\CCCCCCCC(=O)O [Oleic acid/8-Octadecenoc acid, Oleic acid] | 1.76 | 2.41 |  |
| CCCCCCCCCCCCCCCC(=O)O [Hexadecanoic acid] | 0.15 | 0.15 |  |
| CCCCCCCC/C=C\CCCCCCCC(=O)OCC [9-Octadecenoic acid (z)-athyl ester] | 0.13 | 0.04 |  |
| CCCCC/C=C/C/C=C/CCCCCCCC(=O)O [Lenoelaidic acid] | 0.40 | 0.52 |  |
| CCCCCCCCCCCCCCCC(=O)OCC [Hexadecanoic acid, ethyl ester] | 0.09 | 0.08 |  |
| CCCCCCCCCCCCCCCCCCOC(=O)OCC [Carbonic acid, ethyl octadecyl ester] | 0.31 | 0.29 |  |
| Cc1ccc(C=O)c(C)c1 [2-4-Dimethyl-Benzaldehyde] |  |  | Peak area ratio of volatile in urine ([1]; intact female cats (N=7)): 0.11; Peak area ratio of volatile in urine ([1]; intact male cats (N=7)): 0.09 |
| O=C1CCCCN1 [2-Piperidinone] | 0.25 | 0.20 |  |
| CCCCC(=O)O [Pentanoic acid] | 2.40 | 2.81 |  |
| CC(C)(CCO)SC[C@H](N)C(=O)O [felinine, reference compound] |  |  | excretion rate in the urine ([3]; intact female cats): 19 mg/day; excretion rate in the urine ([3]; sex not given, compared with intact female cats (male cats implied)): 95 mg/day |
| CC(=O)O [Acetic acid] | 0.40 | 0.52 |  |
| CC(C)(S)CCO [MMB, 3-Mercapto-3-Methyl Butanol] |  |  | higher concentration in the urine of males than females ([1]; P<0.001): seven; Estimated concentration in cat urine, 95% confidence interval ([1]; female cats): 0.00 to 1.63 µg/mL; quantity estimated in urine, on average ([1]; intact female cat): 0.81 ppm; Peak area ratio of volatile in urine ([1]; intact female cats (N=7)): 0.02; quantity estimated in urine, on average ([1]; intact male cat): 6.60 ppm; Peak area ratio of volatile in urine ([1]; intact male cats (N=7)): 0.14; Estimated concentration in cat urine, 95% confidence interval ([1]; male cats): 2.22 to 10.99 µg/mL; level in cat feces ([3]; intact males): 50 ng/g wet feces |
| CC(C)CC(O)CC(C)C [4-Heptanol, 2,6-Dimethyl] |  |  | Peak area ratio of volatile in urine ([1]; intact female cats (N=7)): 0.06; Peak area ratio of volatile in urine ([1]; intact male cats (N=7)): 0.24 |
| c1ccc2[nH]ccc2c1 [1-H indole] | 0.24 | 0.22 |  |

Read-outs that look alike come from different tables or passages of the source.
